Changes are numbered by the printed parent chain. These are yes or no findings as the source states them, for the method shown. In cells and extracts the contact can be indirect. Some results given as binding are weak or reduced against the parent protein; the word gives no strength. Tags and fused reporters may be left off the sequences shown.
Legend:
[1] = biological target: T1, HA–NUAK1 (wild type), stably overexpressed in U2OS Flp/In cells (human) (UniProt O60285); experiment: co-IP; HA–NUAK1 immunoprecipitated from U2OS cells stably expressing it after treatment of the cells with roscovitine for 1 h, immunoblot
T1 sequence: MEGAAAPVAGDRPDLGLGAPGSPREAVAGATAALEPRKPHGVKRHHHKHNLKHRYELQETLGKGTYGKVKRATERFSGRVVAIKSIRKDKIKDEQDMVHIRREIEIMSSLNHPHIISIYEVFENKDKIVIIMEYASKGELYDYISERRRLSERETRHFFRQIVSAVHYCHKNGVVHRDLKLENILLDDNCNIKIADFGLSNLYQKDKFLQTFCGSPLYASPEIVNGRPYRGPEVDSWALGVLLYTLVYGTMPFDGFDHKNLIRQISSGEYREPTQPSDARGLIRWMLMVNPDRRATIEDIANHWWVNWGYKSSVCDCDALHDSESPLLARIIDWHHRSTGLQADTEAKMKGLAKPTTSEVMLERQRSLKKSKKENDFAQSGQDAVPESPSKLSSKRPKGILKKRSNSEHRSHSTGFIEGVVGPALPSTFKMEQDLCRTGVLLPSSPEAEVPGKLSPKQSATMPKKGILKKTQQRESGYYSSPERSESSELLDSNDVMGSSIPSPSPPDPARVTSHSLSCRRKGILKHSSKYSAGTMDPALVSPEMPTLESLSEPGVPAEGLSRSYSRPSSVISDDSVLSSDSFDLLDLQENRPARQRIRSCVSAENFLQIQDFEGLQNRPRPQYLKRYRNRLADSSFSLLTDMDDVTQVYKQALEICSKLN

By UniProt entry, the sequences of proteins in these tests, tags left out. Where a name states a change or a piece, a line headed by the entry shows the natural chain unless it says otherwise.
UniProt O14974: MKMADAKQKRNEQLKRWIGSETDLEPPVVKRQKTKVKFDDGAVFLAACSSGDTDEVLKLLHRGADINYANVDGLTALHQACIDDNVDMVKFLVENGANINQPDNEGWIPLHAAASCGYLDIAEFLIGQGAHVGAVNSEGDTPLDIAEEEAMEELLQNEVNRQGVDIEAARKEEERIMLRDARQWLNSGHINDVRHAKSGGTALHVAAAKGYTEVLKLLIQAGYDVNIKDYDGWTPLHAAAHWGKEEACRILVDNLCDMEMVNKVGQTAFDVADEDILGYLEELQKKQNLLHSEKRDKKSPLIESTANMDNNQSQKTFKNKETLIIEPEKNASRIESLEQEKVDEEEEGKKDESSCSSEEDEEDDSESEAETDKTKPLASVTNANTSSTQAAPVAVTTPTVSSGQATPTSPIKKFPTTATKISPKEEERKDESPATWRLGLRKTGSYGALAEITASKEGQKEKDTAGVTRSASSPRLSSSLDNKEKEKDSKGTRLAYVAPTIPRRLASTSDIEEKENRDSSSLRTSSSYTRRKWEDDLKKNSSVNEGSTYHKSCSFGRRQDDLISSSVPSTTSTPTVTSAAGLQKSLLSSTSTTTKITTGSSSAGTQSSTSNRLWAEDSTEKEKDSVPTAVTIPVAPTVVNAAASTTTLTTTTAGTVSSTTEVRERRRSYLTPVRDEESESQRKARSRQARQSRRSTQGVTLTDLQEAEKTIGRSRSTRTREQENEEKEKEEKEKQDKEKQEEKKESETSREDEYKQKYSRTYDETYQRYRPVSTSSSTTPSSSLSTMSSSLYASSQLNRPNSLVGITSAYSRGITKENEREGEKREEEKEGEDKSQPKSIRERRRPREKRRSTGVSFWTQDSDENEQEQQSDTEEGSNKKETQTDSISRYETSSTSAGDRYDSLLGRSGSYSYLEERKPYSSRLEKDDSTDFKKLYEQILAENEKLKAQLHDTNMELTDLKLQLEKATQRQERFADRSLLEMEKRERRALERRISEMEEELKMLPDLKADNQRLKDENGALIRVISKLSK

[2] = biological target: T2, HA-tagged NUAK1 WT, transiently expressed in HEK-293 cells (human) (UniProt O60285); experiment: co-IP; HA-tagged NUAK1 (WT or mutant) transfected into HEK-293 cells, lysed after 36 h, immunoprecipitated from 1 mg of lysate, immunoblot for endogenous partners
T2 sequence: T1 sequence

[3] = biological target: T1, HA–NUAK1 (wild type), stably overexpressed in U2OS Flp/In cells (human); experiment: co-IP; HA–NUAK1 immunoprecipitated from lysate of U2OS Flp/In cells stably overexpressing it, immunoblot; empty-vector cells as negative control; in Figure 4C cells treated with inhibitors (BI2536, GSK461364) for 1 h
[4] = biological target: T3, GST-tagged NUAK1 S476A+S480A (human) (UniProt O60285); experiment: co-IP; GST-tagged kinase (WT or mutant) transfected into HEK-293 cells, lysed after 36 h, GST-tagged protein 'immunoprecipitated' from 5 mg of lysate, immunoblot for endogenous partners
T3 sequence: T1 sequence with S476A, S480A

Row | binding [2] | binding [3] | binding [4] | Substance | binding [1]
1 | binds | binds | – | PLK1 (Polo kinase 1), endogenous (from UniProt P53350 1-603) | no binding (condition: cells treated with roscovitine)
2 | – | – | binds | PP1β^MYPT1 myosin phosphatase complex (from UniProt O14974 1-1030; P62140 1-327) | –
